Data reported in the supplement of paper PMC10727501.
Structures can show the parent of a compound that is named as a salt. This is one part of the list. Repeats in this data set agree poorly, so a single value says little.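 Free-swimming zebrafish larvae were scored for O-bend response probability to dark flashes (naive: first five; training: remaining flashes of four 60-flash blocks; test: later 60-flash block) and for turning toward alternating leftward/rightward LED motion (OMR). Six treated larvae were compared with sixty 0.1% DMSO controls; |SSMD|≥2 defined a hit.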

Tests used:
Details in all cases: 10 µM; pre-incubation: 30-90 min
[1] = tested on: Danio rerio larvae (5 dpf, TLF); experiment: OMR-Perf (SSMD vs DMSO vehicle); higher = higher than vehicle (e.g. higher dark-flash O-bend response probability, or better optomotor performance)
[2] = tested on: Danio rerio larvae (5 dpf, TLF); experiment: Prob-Test (SSMD vs DMSO vehicle); higher = higher than vehicle (e.g. higher dark-flash O-bend response probability, or better optomotor performance)
[3] = tested on: Danio rerio larvae (5 dpf, TLF); experiment: Prob-Naive (SSMD vs DMSO vehicle); higher = higher than vehicle (e.g. higher dark-flash O-bend response probability, or better optomotor performance)
[4] = tested on: Danio rerio larvae (5 dpf, TLF); experiment: Prob-Train (SSMD vs DMSO vehicle); higher = higher than vehicle (e.g. higher dark-flash O-bend response probability, or better optomotor performance)

SMILES | OMR-Perf [1] | Prob-Test [2] | Prob-Naive [3] | Prob-Train [4]
C[C@]12C=CC(=O)N[C@@H]1CC[C@@H]1[C@H]2CC[C@]2(C)[C@H](C(=O)Nc3cc(C(F)(F)F)ccc3C(F)(F)F)CC[C@@H]12 [Dutasteride] | -0.374 | -0.169 | -0.134 | -1.27
CCn1cc(C(=O)O)c(=O)c2cc(F)c(N3CCN(C)CC3)cc21.CS(=O)(=O)O [Pefloxacin Mesylate] | 0.216 | -0.806 | 0.26 | -0.574
Oc1ccc(Nc2nc(-c3ccc(Cl)cc3)cs2)cc1 | -0.969 | -0.094 | -0.332 | -1.43
CC1=C(/C=C/C(C)=C/C=C/C(C)=C/C(=O)O)C(C)(C)CCC1 [Tretinoin] | 0.481 | -0.62 | -0.386 | -1.08
CCCCNc1ncc(-c2ccc(CN3CCOCC3)cn2)c(N[C@H]2CC[C@H](O)CC2)n1 | -0.769 | -0.208 | 0.227 | -0.577
O=C(O)CCCN1CCC(O[C@@H](c2ccc(Cl)cc2)c2ccccn2)CC1.O=S(=O)(O)c1ccccc1 [Bepotastine Besilate] | -0.215 | -0.405 | -0.156 | -0.218
Nc1ccc(-c2ccc3ncc4ccc(=O)n(-c5cccc(C(F)(F)F)c5)c4c3c2)cn1 [Torin 2] | -0.627 | -0.414 | 0.0457 | 0.0422
O=C([O-])C(O)Cc1ccc(O)c(O)c1.[Na+] (stereo not drawn) [Sodium Danshensu] | -0.357 | 0.188 | -0.0234 | -0.167
COc1ccc(-n2c(C)c([N+](=O)[O-])c3ccc(O)cc32)cc1 | 0.259 | -0.218 | -0.759 | -1.22
CC(C)[C@H](CNC(=O)[C@@H](NC(=O)c1cccc(-c2ccccc2)n1)[C@@H](C)O)B(O)O | 0.218 | -1.45 | -0.91 | -0.445
CN(C)Cc1ccc(-c2nc3cccc4c3n2CCNC4=O)cc1 | -0.23 | 0.365 | 0.146 | 0.059
C[C@H]1O[C@@H](n2cc(F)c(=O)[nH]c2=O)[C@@H](O)[C@@H]1O [Doxifluridine] | -0.39 | 0.0974 | -0.0225 | 0.0779
O=C(NCCO[N+](=O)[O-])c1cccnc1 [Nicorandil] | -0.0137 | 0.00705 | 0.536 | 0.477
CCCc1nc(C)c2c(=O)[nH]c(-c3cc(S(=O)(=O)N4CCN(CC)CC4)ccc3OCC)nn12.Cl.O.O.O [Vardenafil HCl Trihydrate] | 0.408 | -0.442 | -0.538 | -0.779
COc1ccc(-c2ccc3c(N4CCOCC4)nc(N4C[C@@H](C)O[C@@H](C)C4)nc3n2)cc1CO | 0.114 | 0.322 | -0.0595 | 0.218
Cc1ccc(S(=O)(=O)n2c(N)nc3ccccc32)cc1 [ML130 (Nodinitib-1)] | -0.459 | -0.971 | -0.388 | -2.31
c1ccc2c(Oc3nc(Nc4ccc(N5CCOCC5)cc4)c4ncn(C5CCCCC5)c4n3)cccc2c1 [Purmorphamine] | -0.33 | -0.459 | -0.526 | -0.439
O=C(/C=C/N1C[C@H]2C[C@@H]1CN2c1ccccn1)c1ccccc1O | 0.168 | -1.21 | -0.519 | -0.905
CN1C(C(=O)Nc2ccccn2)=C(O)c2ccccc2S1(=O)=O [Piroxicam] | -0.665 | -0.904 | -0.316 | -1.22
c1coc(CNc2ncnc3nc[nH]c23)c1 [Kinetin] | -0.169 | 0.152 | 0.285 | -0.0654
NS(=O)(=O)c1cc(C(=O)O)c(NCc2ccco2)cc1Cl [Furosemide] | -0.333 | -0.52 | -0.0545 | -0.406
CC(C[N+](C)(C)C)OC(N)=O.[Cl-] (stereo not drawn) [Bethanechol chloride] | 0.283 | -0.395 | -0.354 | -0.842
CN(C)CCCNC(=O)c1ccc(-c2cc(O)c3ncccc3c2)cc1 | 0.0371 | -0.0485 | -0.0534 | 0.443
NC1(C(=O)N[C@@H](CCO)c2ccc(Cl)cc2)CCN(c2ncnc3[nH]ccc23)CC1 | 0.0249 | 0.000671 | 0.456 | -0.582
CC1(C)CCC[C@@]2(C)[C@H]3CC(=O)O[C@]3(C)CC[C@@H]12 [Sclareolide] | -0.94 | -1.13 | -1.35 | -2.46
C=C1/C(=C/C=C2\CCC[C@@]3(C)[C@H]2CC[C@H]3[C@H](C)/C=C/[C@@H](C)C(C)C)C[C@H](O)C[C@@H]1O [Doxercalciferol] | -0.616 | -0.887 | -0.0954 | -0.0982

Already shown: entries from further up.
SMILES | OMR-Perf [1] | Prob-Test [2] | Prob-Naive [3] | Prob-Train [4]
O=C([O-])C(O)Cc1ccc(O)c(O)c1.[Na+] (stereo not drawn) [Sodium Danshensu] | -0.357 | 0.188 | -0.0234 | -0.167
COc1ccc(-n2c(C)c([N+](=O)[O-])c3ccc(O)cc32)cc1 | 0.259 | -0.218 | -0.759 | -1.22
CC(C)[C@H](CNC(=O)[C@@H](NC(=O)c1cccc(-c2ccccc2)n1)[C@@H](C)O)B(O)O | 0.218 | -1.45 | -0.91 | -0.445

(cont.)

SMILES | OMR-Perf [1] | Prob-Test [2] | Prob-Naive [3] | Prob-Train [4]
CCOC(=O)Nc1cc(-c2ccc(C)c(NS(C)(=O)=O)c2)nn2c(C)nnc12 [Bromosporine] | -0.402 | 0.0249 | -0.356 | -0.288
N#C[C@@H]1CCCN1C(=O)CNC12CC3CC(CC(O)(C3)C1)C2 [Vildagliptin (LAF-237)] | 0.832 | -0.463 | -0.205 | -0.716
CCn1cc(C(=O)O)c(=O)c2cnc(N3CCCC3)nc21 [Piromidic Acid] | 0.201 | 1.48 | -0.288 | 1.06
O=C(O)c1ccc(NC(=O)[C@H](Cc2ccc(O)cc2)NC(=O)c2ccccc2)cc1 [Bentiromide] | 0.115 | 0.307 | 0.444 | 0.385
COc1cccc2c1C(=O)c1c(O)c3c(c(O)c1C2=O)C[C@@](O)(C(=O)CO)C[C@H]3O[C@H]1C[C@H](N)[C@@H](O)[C@H](C)O1.Cl [Epirubicin HCl] | -0.371 | 0.0981 | -0.295 | -0.431
C=CCOc1ccccc1OCC(O)CNC(C)C (stereo not drawn) [Oxprenolol HCl] | -0.602 | 0.115 | 0.0912 | 0.062
COc1cc(Nc2ncc(F)c(Nc3ccc4c(n3)NC(=O)C(C)(C)O4)n2)cc(OC)c1OC [R406 (free base)] | -0.184 | -0.251 | 0.173 | -0.212
Nc1nc(Cl)nc2c1ncn2[C@@H]1O[C@H](CO)[C@@H](O)[C@@H]1F [Clofarabine] | 0.0915 | 0.0657 | 0.214 | 0.572
Cc1ccc(NC(=O)c2ccc(CN3CCN(C)CC3)cc2)cc1Nc1nccc(-c2cccnc2)n1 [Imatinib (STI571)] | 0.399 | -0.0259 | 0.289 | -0.275
CNC[C@H](O)[C@@H](O)[C@H](O)[C@H](O)CO [Meglumine] | 0.19 | 0.0539 | 0.285 | 0.303
CNC(=O)c1ccc(N2C(=S)N(c3cnc(C#N)c(C(F)(F)F)c3)C(=O)C23CCC3)cc1F | -0.665 | -0.448 | 0.287 | -0.599
COCC(=O)NC/C=C/c1ccc2ncnc(Nc3ccc(Oc4ccc(C)nc4)c(C)c3)c2c1 | 0.322 | -0.116 | 0.471 | -0.445
CCC(CC)(NC(=O)C(C)C)C(=O)N[C@@H](CCCNC(=N)N)C(=O)NC1(C(=O)NC(c2ccc(F)cc2)c2ccc(F)cc2)CCCC1 | 0.351 | 0.573 | -0.314 | 0.175
Cc1ccnc(NS(=O)(=O)c2ccc(N)cc2)n1 [Sulfamerazine] | 0.163 | 0.504 | 0 | 0.448
CC[C@H](C)C(=O)O[C@H]1CCC=C2C=C[C@H](C)[C@H](CC[C@H]3C[C@@H](O)CC(=O)O3)[C@H]21 [Mevastatin] | -0.195 | -1.7 | 0.584 | -1.21
CS(=O)(=O)O.Cc1ccc(N(CC2=NCCN2)c2cccc(O)c2)cc1 [Phentolamine Mesylate] | -0.0822 | 0.129 | -0.0812 | -0.394
COc1ccc(-c2coc3cc(O)cc(O)c3c2=O)cc1 [Biochanin A] | -0.929 | -1.79 | -2.17 | -2.76
COC(=O)NC(C)CNc1nccc(-c2cn(C(C)C)nc2-c2cc(Cl)cc(NS(C)(=O)=O)c2F)n1 (stereo not drawn) | -0.518 | -0.164 | -0.102 | 0.266
CNC(=O)[C@@H](Cc1ccccc1)NC(=O)[C@@H](CC(C)C)[C@H](CSc1cccs1)C(=O)NO [Batimastat (BB-94)] | -0.485 | -0.0769 | 0.292 | -0.102
CCCNC(=O)Nc1ccc(Oc2ncnc3cc(OC)c(OC)cc23)cc1Cl | -0.0258 | -0.315 | 0.113 | -0.267
COc1ccc2[n-]c(S(=O)Cc3ncc(C)c(OC)c3C)nc2c1.[Na+] (stereo not drawn) [Esomeprazole Sodium] | -0.222 | 0.0553 | -0.388 | -0.127
CCOC(=O)c1ncn2c1CN(C)C(=O)c1cc(F)ccc1-2 [Flumazenil] | 0.0361 | 0.0295 | -0.276 | 0.0627
O=c1ncn2nc(Sc3ccc(F)cc3F)ccc2c1-c1c(Cl)cccc1Cl | -0.312 | -0.255 | 0.173 | -0.44
CC(C)[C@H](O)C(=O)N[C@@H](C)C(=O)N[C@H]1C(=O)N(C)CCc2ccccc21 | 0.205 | -0.0941 | 0.449 | 0.0619
CO[C@H]1C[C@H]2CC[C@@H](C)[C@@](O)(O2)C(=O)C(=O)N2CCCC[C@H]2C(=O)O[C@H]([C@H](C)C[C@@H]2CC[C@H](OC(=O)C(C)(CO)CO)[C@H](OC)C2)CC(=O)[C@H](C)/C=C(\C)[C@@H](O)[C@@H](OC)C(=O)[C@H](C)C[C@H](C)/C=C/C=C/C=C/1C | -0.383 | 0.318 | -0.229 | -0.247
N[C@@H](Cc1ccc(O)c(O)c1)C(=O)O [Levodopa (Sinemet)] | -0.353 | -0.243 | -0.142 | -1.15
